The supplement of paper PMC7661543
Differences between knockout arms are mostly noise.

System: BT-20
Assay: relative cell number vs DMSO control (72 h) (% of DMSO); higher = less growth inhibition (more cells)
Method: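 QMAP-Seq: a pool of 5 breast cancer cell lines (ZR-75-1, SKBR3, HCC-38, MDA-MB-231, BT-20), each carrying 12 doxycycline-inducible Cas9 sgRNA perturbations (11 knockouts plus non-targeting sgNT), was treated with compounds for 72 h at four 10-fold doses (10 nM-10 uM or 1 nM-1 uM range). Barcodes were amplified and sequenced, and cell number was interpolated from 293T spike-in standard curves. The result is expressed as % of the median of DMSO wells. Two biological replicates.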

N#Cc1ccc(COC[C@H]2O[C@@H](n3c(NCc4ccc(Cl)c(Cl)c4)nc4c(N)ncnc43)[C@H](O)[C@@H]2O)cc1
Settings | relative cell number
sgRNA knockout: sgATF3, 10 nM | 102
sgRNA knockout: sgATF3, 100 nM | 86.2
sgRNA knockout: sgATF3, 1000 nM | 112
sgRNA knockout: sgATF3, 10000 nM | 69.6
sgRNA knockout: sgATF4, 10 nM | 104
sgRNA knockout: sgATF4, 100 nM | 114
sgRNA knockout: sgATF4, 1000 nM | 95.3
sgRNA knockout: sgATF4, 10000 nM | 69.5
sgRNA knockout: sgATF6, 10 nM | 96.3
sgRNA knockout: sgATF6, 100 nM | 101
sgRNA knockout: sgATF6, 1000 nM | 103
sgRNA knockout: sgATF6, 10000 nM | 65.3
sgRNA knockout: sgATG7, 10 nM | 111
sgRNA knockout: sgATG7, 100 nM | 104
sgRNA knockout: sgATG7, 1000 nM | 98.9
sgRNA knockout: sgATG7, 10000 nM | 70
sgRNA knockout: sgERN1, 10 nM | 98
sgRNA knockout: sgERN1, 100 nM | 105
sgRNA knockout: sgERN1, 1000 nM | 103.5
sgRNA knockout: sgERN1, 10000 nM | 80.1
sgRNA knockout: sgHSF1, 10 nM | 99.7
sgRNA knockout: sgHSF1, 100 nM | 102
sgRNA knockout: sgHSF1, 1000 nM | 108
sgRNA knockout: sgHSF1, 10000 nM | 72.6
sgRNA knockout: sgHSF2, 10 nM | 120.2
sgRNA knockout: sgHSF2, 100 nM | 105
sgRNA knockout: sgHSF2, 1000 nM | 98.8
sgRNA knockout: sgHSF2, 10000 nM | 65.2
sgRNA knockout: sgKEAP1, 10 nM | 96.9
sgRNA knockout: sgKEAP1, 100 nM | 89.9
sgRNA knockout: sgKEAP1, 1000 nM | 109
sgRNA knockout: sgKEAP1, 10000 nM | 79.5
sgRNA knockout: sgNFE2L2, 10 nM | 109
sgRNA knockout: sgNFE2L2, 100 nM | 76.18
sgRNA knockout: sgNFE2L2, 1000 nM | 110
sgRNA knockout: sgNFE2L2, 10000 nM | 69.2
sgRNA knockout: sgSLC35F2, 10 nM | 105
sgRNA knockout: sgSLC35F2, 100 nM | 104
sgRNA knockout: sgSLC35F2, 1000 nM | 106
sgRNA knockout: sgSLC35F2, 10000 nM | 66
sgRNA knockout: sgXBP1, 10 nM | 97.4
sgRNA knockout: sgXBP1, 100 nM | 96.176
sgRNA knockout: sgXBP1, 1000 nM | 105
sgRNA knockout: sgXBP1, 10000 nM | 75.7

O=C(NOCC(O)CO)c1cc(Br)c(F)c(F)c1Nc1ccc(I)cc1F (configuration not stated)
Settings | relative cell number
sgRNA knockout: sgATF3, 10 nM | 96.5
sgRNA knockout: sgATF3, 100 nM | 83.5
sgRNA knockout: sgATF3, 1000 nM | 79.4
sgRNA knockout: sgATF3, 10000 nM | 89.3
sgRNA knockout: sgATF4, 10 nM | 104
sgRNA knockout: sgATF4, 100 nM | 97.2
sgRNA knockout: sgATF4, 1000 nM | 91.7
sgRNA knockout: sgATF4, 10000 nM | 85.8
sgRNA knockout: sgATF6, 10 nM | 95.7
sgRNA knockout: sgATF6, 100 nM | 85.7
sgRNA knockout: sgATF6, 1000 nM | 85.5
sgRNA knockout: sgATF6, 10000 nM | 93.8
sgRNA knockout: sgATG7, 10 nM | 89.2
sgRNA knockout: sgATG7, 100 nM | 84.43
sgRNA knockout: sgATG7, 1000 nM | 80.6
sgRNA knockout: sgATG7, 10000 nM | 89.1
sgRNA knockout: sgERN1, 10 nM | 103
sgRNA knockout: sgERN1, 100 nM | 89.5
sgRNA knockout: sgERN1, 1000 nM | 84.6
sgRNA knockout: sgERN1, 10000 nM | 90.2
sgRNA knockout: sgHSF1, 10 nM | 93.9
sgRNA knockout: sgHSF1, 100 nM | 88.9
sgRNA knockout: sgHSF1, 1000 nM | 85.7
sgRNA knockout: sgHSF1, 10000 nM | 84
sgRNA knockout: sgHSF2, 10 nM | 105
sgRNA knockout: sgHSF2, 100 nM | 99.5
sgRNA knockout: sgHSF2, 1000 nM | 83.3
sgRNA knockout: sgHSF2, 10000 nM | 88
sgRNA knockout: sgKEAP1, 10 nM | 94.3
sgRNA knockout: sgKEAP1, 100 nM | 85.2
sgRNA knockout: sgKEAP1, 1000 nM | 81.9
sgRNA knockout: sgKEAP1, 10000 nM | 87.5
sgRNA knockout: sgNFE2L2, 10 nM | 105
sgRNA knockout: sgNFE2L2, 100 nM | 106
sgRNA knockout: sgNFE2L2, 1000 nM | 84.4
sgRNA knockout: sgNFE2L2, 10000 nM | 99.2
sgRNA knockout: sgSLC35F2, 10 nM | 89.7
sgRNA knockout: sgSLC35F2, 100 nM | 86.6
sgRNA knockout: sgSLC35F2, 1000 nM | 92.4
sgRNA knockout: sgSLC35F2, 10000 nM | 92.8
sgRNA knockout: sgXBP1, 10 nM | 98.1
sgRNA knockout: sgXBP1, 100 nM | 86.89
sgRNA knockout: sgXBP1, 1000 nM | 92.9
sgRNA knockout: sgXBP1, 10000 nM | 89.1

O=c1[nH]cc(F)c(=O)[nH]1 [5-Fluorouracil]
Settings | relative cell number
sgRNA knockout: sgATF3, 10 nM | 104
sgRNA knockout: sgATF3, 100 nM | 104
sgRNA knockout: sgATF3, 1000 nM | 91.3
sgRNA knockout: sgATF3, 10000 nM | 70.2
sgRNA knockout: sgATF4, 10 nM | 110
sgRNA knockout: sgATF4, 100 nM | 109
sgRNA knockout: sgATF4, 1000 nM | 88.8
sgRNA knockout: sgATF4, 10000 nM | 56.4
sgRNA knockout: sgATF6, 10 nM | 90.7
sgRNA knockout: sgATF6, 100 nM | 111
sgRNA knockout: sgATF6, 1000 nM | 95.3
sgRNA knockout: sgATF6, 10000 nM | 60.8
sgRNA knockout: sgATG7, 10 nM | 107
sgRNA knockout: sgATG7, 100 nM | 126
sgRNA knockout: sgATG7, 1000 nM | 103
sgRNA knockout: sgATG7, 10000 nM | 61.93
sgRNA knockout: sgERN1, 10 nM | 94.5
sgRNA knockout: sgERN1, 100 nM | 107
sgRNA knockout: sgERN1, 1000 nM | 80
sgRNA knockout: sgERN1, 10000 nM | 70.7
sgRNA knockout: sgHSF1, 10 nM | 93.1
sgRNA knockout: sgHSF1, 100 nM | 107
sgRNA knockout: sgHSF1, 1000 nM | 91.1
sgRNA knockout: sgHSF1, 10000 nM | 72.5
sgRNA knockout: sgHSF2, 10 nM | 82
sgRNA knockout: sgHSF2, 100 nM | 99.846
sgRNA knockout: sgHSF2, 1000 nM | 86.1
sgRNA knockout: sgHSF2, 10000 nM | 63.3
sgRNA knockout: sgKEAP1, 10 nM | 84.6
sgRNA knockout: sgKEAP1, 100 nM | 102
sgRNA knockout: sgKEAP1, 1000 nM | 96.2
sgRNA knockout: sgKEAP1, 10000 nM | 54.5
sgRNA knockout: sgNFE2L2, 10 nM | 84.7
sgRNA knockout: sgNFE2L2, 100 nM | 103
sgRNA knockout: sgNFE2L2, 1000 nM | 81.5
sgRNA knockout: sgNFE2L2, 10000 nM | 54.8
sgRNA knockout: sgSLC35F2, 10 nM | 99.3
sgRNA knockout: sgSLC35F2, 100 nM | 95.3
sgRNA knockout: sgSLC35F2, 1000 nM | 91.9
sgRNA knockout: sgSLC35F2, 10000 nM | 62.8
sgRNA knockout: sgXBP1, 10 nM | 94
sgRNA knockout: sgXBP1, 100 nM | 114
sgRNA knockout: sgXBP1, 1000 nM | 105
sgRNA knockout: sgXBP1, 10000 nM | 59.5
